Experimental data taken from patent US20240192235A1, “CERAMIDE AND SPINGOMYELIN IN NEUROLOGICAL DISORDERS” (Duke University, priority 2021, published 2024).
For at least one compound, name, drawing or mass did not settle the structure.

Key:
Assay type in all cases: in vivo
WT and APP/PS1 mice [1] = test: Novel object recognition (NOR) test
Description: (§1) APPswe/PS1dE9 (referred to as APP/PS1) and C57BI/6J (referred to as WT) mice were purchased from The Jackson Laboratory. The APP/PS1 is a double transgenic mouse expressing a chimeric mouse/human amyloid precursor protein (Mo/HuAPP695swe) and a mutant human presenilin 1 (PS1-dE9), both directed to CNS neurons. 50% of animals used in all experiments were male.
(§2) APP/PS1 mice and their WT littermates were used to examine fingolimod effects in vivo. Fingolimod treatment was provided in drinking water in a dark container and changed every 48 h to provide 1 mg/kg/day.
Mice were habituated to experimental apparatus consisting of a gray rectangular open field (60 cm×50 cm×26 cm) for 5 min in the absence of any objects for 3 days. On the third day, after the habituation trial, mice were placed in the experimental apparatus in the presence of two identical objects and allowed to explore them for 5 min. […] All sessions were recorded using Noldus Media Recorder software. Exploration of the objects was defined as the mice facing and sniffing the objects within 2 cm distance and/or touching them, assessed with ANY-maze software. The ability of the mouse to recognize the novel object (discrimination index) was determined by dividing the mean time exploring the novel object by the mean of the total time exploring the novel and familiar objects during the test session. […]

WT and APP/PS1 mice [2] = test: LTP recordings at the CA3 to CA1 synapse in hippocampal slices of treated mice; conditions: fingolimod-treated APP/PS1 mice
WT and APP/PS1 mice [3] = test: Barnes Maze task
Description: as §1, §2
The behavioral apparatus consisted of a white flat, circular disk with 20 holes around its perimeter. One hole held the entrance to a darkened escape box not visible from the surface of the board, allowing the subject to exit the maze. The escape chamber position remained fixed during all trials. Mice learn the location of the escape hole using spatial reference points that were fixed in relation to the maze (extra-maze cues). The task consisted of one habituation trial on day 1 where the escape hole was presented to the animal, the animal remained in the escape box for 2 min. After the habituation trial the training phase consisted of four 3-min trials of spatial acquisition for 4 consecutive days with a 15 min inter-trial interval. On the fifth day (probe trial) the escape box was removed, and the animals were allowed to explore the maze for 90 s. All sessions were recorded using Debut video software and assessed through ANY-maze software. For each trial, several parameters were recorded to assess performance. These include: the latency to locate the escape box, the number of incorrect holes checked prior to entering the escape box, as well as the distance traveled prior to locating the escape box. For the probe trial, time spent in the target quadrant and target hole were analyzed.
In a second experiment, mice were treated with fingolimod (1 mg/kg/day) for eight weeks (APP/PS1, n=6, 50% female; WT, n=6, 50% female; all mice 7 m.o. at the beginning of treatment).

Compound: CCCCCCCCc1ccc(CCC(N)(CO)CO)cc1 [fingolimod]
- effect of treatment on NOR discrimination index (WT and APP/PS1 mice [1]): significantly enhanced
- average slope percent change during the last 20 min of the maintenance phase (WT and APP/PS1 mice [2]): 225.8%±1.86
- normalized slope of fEPSP at the CA3 to CA1 synapse after HFS (WT and APP/PS1 mice [2]): significantly augmented
- effect of treatment on spatial learning deficits (Barnes Maze) (WT and APP/PS1 mice [3]; APP/PS1 mice at 9 m.o.): mitigated the spatial learning deficits
- Latency across training days (WT and APP/PS1 mice [3]; treated APP/PS1 vs treated WT mice): no difference between groups
- latency during training (WT and APP/PS1 mice [3]; treated vs untreated APP/PS1 mice, 9 m.o.): deficit in untreated compared to treated APP/PS1 mice
